Measurements reported in patent publication US20030027252A1 (TULARIK, published 2003).
Results are given in words; binding and its absence hold for the method and conditions named. Some entries that bind do so weakly or less than the wild type. Where no end group is shown, it is not given here.

Protein sequences, listed by entry. Tags and fused reporters are not part of them. Lines headed by an entry give the natural chain unless they say otherwise; changes in a name come on top.
UniProt Q969V1: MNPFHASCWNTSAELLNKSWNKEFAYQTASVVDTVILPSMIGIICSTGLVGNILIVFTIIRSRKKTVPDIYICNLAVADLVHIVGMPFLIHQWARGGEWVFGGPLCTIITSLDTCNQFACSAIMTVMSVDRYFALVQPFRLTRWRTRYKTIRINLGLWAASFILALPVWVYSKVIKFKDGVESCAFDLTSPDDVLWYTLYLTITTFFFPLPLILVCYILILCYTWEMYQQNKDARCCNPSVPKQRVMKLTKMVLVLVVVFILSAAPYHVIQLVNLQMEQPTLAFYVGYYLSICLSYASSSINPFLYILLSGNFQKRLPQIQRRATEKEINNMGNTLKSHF
UniProt P20382: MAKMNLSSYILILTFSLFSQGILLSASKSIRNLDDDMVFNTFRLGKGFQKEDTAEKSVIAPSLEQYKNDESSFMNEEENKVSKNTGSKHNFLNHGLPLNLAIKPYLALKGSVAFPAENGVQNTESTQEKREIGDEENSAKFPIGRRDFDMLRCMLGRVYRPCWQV

Experiments:
[1] = biological target: T1, Human TGR342 (human, UniProt Q969V1 1-340); experiment: competition of excess unlabeled MCH against [125I]-MCH on TGR342 membranes
[2] = biological target: T1, Human TGR342; experiment: radioligand binding to membranes (FIG. 6)

| binding [1] | binding [2] | Molecule |
| --- | --- | --- |
| binds |  | melanin-concentrating hormone (MCH) (from UniProt P20382 147-165) (peptide) |
|  | binds | DFDMLRCMLGRVYRPCWQV (peptide, UniProt P20382 147-165, looked up, ends and bridges not checked; also: 125I label, labelled residue not given here, mature) [[^125I]-MCH] |
